Source: a protein production outcome set (Wang et al. 2014)
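Also: failed if final PepcDB status was selected cloned or expressed and not failed if soluble or beyond.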

Experiment: label from the status in PepcDB records
For “MLASTSPTLVGQGLELRRLWEGAGVSGPSGCSVVLRPHCPGRSGRDSSRAGSLRAEPLRVTCTRDFSCVLGHEALVTSRFPTYVAPMAPLVPGPPLEASPTTLDAAVRWGLQRPVRGHMAPGQAGGRGDASALGAQYSWARDGRSAVGSKLSWVGPAAPESKAAQGREMGRDVGKAVDCLDLSGPDGASCLQLSLRKSELFPAARRPGRPADPGLSPRCLRRPPLRPGPASTPLRGPGAARPPPLPPHSRGRSAVSFLAFLPPQRSPSAPREAAGSRGGLRASGGRCGGPAGAAAGSGGGGDAPGPAGRAMQRSRAGADEAALLLAGLALRELEPGCGSPGRGRRGPRPGPGDEAAPALGRRGKGSGGPEAGADGLSRGERGPRRAAVPELSAQPAGSPRASLAGSDGGGGGGSARSSGISLGYDQRHGSPRSGRSDPRPGPGPPSVGSARSSVSSLGSRGSAGAYADFLPPGACPAPARSPEPAGPAPFPLPALPLPPGREGGPSAAERRLEALTRELERALEARTARDYFGICIKCGLGIYGAQQACQAMGSLYHTDCFTCDSCGRRLRGKAFYNVGEKVYCQEDFLYSGFQQTADKCSVCGHLIMEMILQALGKSYHPGCFRCSVCNECLDGVPFTVDVENNIYCVRDYHTVFAPKCASCARPILPAQGCETTIRVVSMDRDYHVACYHCEDCGLQLSGEEGRRCYPLAGHLLCRRCHLRRLQPGPLPSPTVHVTEL”, the protein production was “failed”.
In the case of “MALYFDHRIKAPDTPSSPSHITWHPTHPFLAVASISPSSGGNVDIYLEQGEPVPDTHIERSFQATSLCWHPTRLILAIGWETGEVIMFNKQDKEQHTVPLPHTTDIAILSWSTSGSCLVSGDKLGVLLLWRLDQRGRVQGTPLLKHEYGKALTHCIFRLPPPGEDLVQLAKAAVSGDEKALDMFNWRKSSFGSFLKTGSQEGLSFFVSLMDGTVHYVDEKGKTAQVASTDSSIQTLFYIERREALVVVTENLLLSLYVVTPEGEAEEVMKVKLSGKTGCRADITLIEGSLLVTAIGEPVLRFWDLERGENYILSLQEKFGFEKGESINCVCFCKAKGLLAAGTNKGRVAMWKKVPSFPNGRGAEGKDMWALQTPTELEGNITQIKWGSRKNLLAVSSTESVSILSEQAMSSHFHQQVAAVQISPSLVNVSFLSTGGTHSLHTDMHISGVFATKDAVAVWNGKQVAIFEPSGSTLRNAG”, the protein production is reported as “failed”.
With “IIGTWLWDLPSDRFTVDEAFARAFGLDPALGRDGLSLAQIVATVHPDDRAGLATAIEEAIKRGGPYAHQYRVRRTDGKYYWLEANGRVEHGPDGTPLSFPGVLIDVDDRRALVAERDRAIAELRALNETLEQRVAEARAELLRSAEQLRQSQKMEAVGQLTGGLAHDFNNLLAGISGSLELMSSRIRQ” the protein production was “failed”.
With “FVNVGERTNVTGSKKFLRLIREEKFAEALEVAQQQVEAGAQIIDINMDEGMLDSQNAMVHFLNLVASEPDISRVPIMIDSSKWEIIEAGLKCVQGKPVVNSISLKEGYDEFVEKARLCRQYGAAIIVMAFDETGQADTAARKREICKRSYDVLVNEVGFPAEDIIFDPNVFAVATGIEEHNNYGVDFIEATGWIKQNLPHAMISGGVSNVSFSFRGNEPVREAIHSVFLYHAIKQGMTMGIVNAGQMAIYDDIPKELKDAVEDVVLNQNQGESGQNATEKLLEVAEKFRGHSGAQREA” the protein production was “failed”.
With “MAANLSRNGPALQEAYVRVVTEKSPTDWALFTYEGNSNDIRVAGTGEGGLEEMVEELNSGKVMYAFCRVKDPNSGLPKFVLINWTGEGVNDVRKGACASHVSTMASFLKGAHVTINARAEEDVEPECIMEKVA” the protein production was “not failed”.
With “MLSLPLDPVQAPWAAIAVILAMLVFFVLEILPVEVTAIVGATAMVLLGLLPQEEVLDVLSNAAPWTIAAMFVIVGALVRTGALDWITRLATQHVGLRPRTTVAVLCVGIVAMSAVVNNTPIVVVFLPVFIQLAAEMRIAPSKLLIPLSYLSIMGGTVTLIGTSTNLVVDGVARANGLDPFGIFEITPVGLPLAIVGMLYLAFLGPKLLPARSSMAGMLTGKRRMKFFTEVAVPEGSPLIGKTLEQVEIFRRSDVQVIDVLRGDSSLRRALATVELAAGDRVVLRSPMGEILTLQDHRHLQLVNRLASVQTQTVEVLITPGCRLIGRSLGDLRLRRRYGVYPLAVHRRNRNLGRQMDDVVVAVGDTLLLEGAMDDIRRLAQEMDLTDLSHPQERPFRRRRAPIAVAVLAAIILLSSFDVAPIEILAFMGVTVVLVTRCIDSEEAFASIDGRLMAMLFGMIAVGAGLDHSGAVELIVGWAEPWLADLPAWLLIFCVFALTSLLTELLSNNAVAVVVTPVAIELAQRLGVDPRPILVAVMMGASFGFATPIGYQCNLLVYGPGGYTFGDFLRIGVPLNVLMGVAAAIVIPLVYGL” the protein production was “failed”.
In the case of “MGREVVEVLMDRNADVSSARVHVAPKIAAEETDEEFEVKECTEEKSLSENAPNVGSAERVGAQKSPKTRNGNAKVSKQQDAPLLAVRKPLQPENKKHIDDEDNCSIASSVATSMRMGKSGLTYGSAPTFRSAQRAEKRKEYYQKLEEKNQALEAERNELEQRQKDEQEAALKQLRKNLKFKAKPVPNFYYEAPPAKPELKKLPLTRPKSPKLILSRRKSFSDAVSSSSREEILKTVSNRNRHSTGTVQNKDDDHRNKNTNAAHDSPRVRSGKGKSGLKPVNESSEEA”, the protein production is reported as “failed”.
For “TDLMLVADFNGRIVAVNPAWTQLLGWEREELEGSSFYDFIHPQDSLAAAGAAADLSRGESFSRFENRFRHRDGSYRWMAWSAVPDPHHIHAVGRDMQAEREAAQALRKTEDILRQAQKMEAVGQLTGGVAHDFNNLLTVIRSSTDLLRRNLS”, the protein production was “failed”.
For “SAKLGFRVSVHMSADARQWKKDKLRSLGVNVVEYASDYGVAVEQGRKAAESDPNCFFIDDENSTTLFLGYAVAGLRLKQQLIDQNIQVDAEHPLFVYLPCGVGGGPGGVSFGLKHALGEHVHCIFAEPTHSPCMLLGVYTGLHDQICVADIGLDNATAADGLAVGRASGFVGRAMQDLIDGYYTISDQHLFEFIRLMDQTQSIQLEPSAVAGVLGIYHVNTNKSYQQAYHLNAIQLKNATHLIWATGGGMVPPNEMQKYL”, the protein production was “failed”.
With “MTPEKHRARKRQAWLWEEDKNLRSGVRKYGEGNWSKILLHYKFNNRTSVMLKDRWRTMKKLKLISSDSED” the protein production was “not failed”.
In the case of “MPVLAPRDSRLPVTVLSGFLGAGKTTLLNRILHNREGLRVAVIVNDMSEINIDAQLLREGGAALRRTDETLVEFSNGCICCTLRDDLLQEVKRLASERRYDYLLIESTGIAEPMPVAATFAVRDADGFSLSDIARLDTMVTVVDGSRFLEDFGSAATLAELGQQAGPDDTRGLVQLLGDQVEFADVLVISKCDQIDTPRLHRLHAVLRALNRDAAIVDAAHGEVPLRQLLDTGRFDFTRAQLAPGWMQELRGQHTPETEEYGITSFVYRARRPFHPQRFARMVQGGLPQVIRSKGFFWLASRMDWVGELSSVGGATQTNAAGFWFAARHRVDAHAIGEPLQTSITPLPYTDIGWQRQQTQCWTAPLPQLHEVGDASEYAAMQRLWHPLWGDRRQELAVIGVDMDAPRTRAALDACLLSDHELRQGPAQWQLLDDPFPHWQR”, the protein production is reported as “failed”.
In the case of “MFSEQAAQRAHTLLSPPSANNATFARVPVATYTNSSQPFRLGERSFSRQYAHIYATRLIQMRPFLENRAQQHWGSGVGVKKLCELQPEEKCCVVGTLFKAMPLQPSILREVSEEHNLLPQPPRSKYIHPDDELVLEDELQRIKLKGTIDVSKLVTGTVLAVFGSVRDDGKFLVEDYCFADLAPQKPAPPLDTDRFVLLVSGLGLGGGGGESLLGTQLLVDVVTGQLGDEGEQCSAAHVSRVILAGNLLSHSTQSRDSINKAKYLTKKTQAASVEAVKMLDEILLQLSASVPVDVMPGEFDPTNYTLPQQPLHPCMFPLATAYSTLQLVTNPYQATIDGVRFLGTSGQNVSDIFRYSSMEDHLEILEWTLRVRHISPTAPDTLGCYPFYKTDPFIFPECPHVYFCGNTPSFGSKIIRGPEDQTVLLVTVPDFSATQTACLVNLRSLACQPISFSGFGAEDDDLGGLGLGP”, the protein production is reported as “failed”.
For “MDGGYDQSGGASRYFHNLFRPELHHQLQPQPQLHPLPQPQPQPQPQQQNSDDESDSNKDPGSDPVTSGSTGKRPRGRPPGSKNKPKPPVIVTRDSPNVLRSHVLEVSSGADIVESVTTYARRRGRGVSILSGNGTVANVSLRQPATTAAHGANGGTGGVVALHGRFEILSLTGTVLPPPAPPGSGGLSIFLSGVQGQVIGGNVVAPLVASGPVILMAASFSNATFERLPLEDEGGEGGEGGEVGEGGGGEGGPPPATSSSPPSGAGQGQLRGNMSGYDQFAGDPHLLGWGAAAAAAPPRPAF”, the protein production was “failed”.
